Experimental data: PubChem BioAssay AID236 (DTP/NCI, 2004)
The list does not hold the whole screen: it gathers tests that were run many times, whatever their T/C, doses with no T/C, and many T/C values between a quarter and a half above the control. Further doses and runs are listed elsewhere. T/C gives the treated animals as a percentage of the vehicle group. Some entries give survivors of the animals treated and no T/C: the source holds a T/C of zero for them, seemingly a mark for toxic or unscored doses. Some survivor counts are full or nearly so, which does not show that the dose was tolerated: the source hardly ever lists a survival T/C far under the control, and the zero likely stands for such cases as well. Survivors were counted at the toxicity check, usually on the fifth day, unless a day is given; later deaths do not show. Schedule codes are those of the source, taken here to give the interval after Q, in days (D) or hours (H), and the number of doses after X. Some schedules carry Z or #; the key to these is not given. Some doses were run more than once; the results are listed from low to high. For survival time, the PubChem record calls one and a half times the control and up active, and a quarter to a half above the control has no call in these data; cut-offs in other NCI protocols can differ. Some T/C values carry the count of animals alive at the toxicity check (mostly the fifth day); without a count, all were alive then.

Tested on: AK4 lymphoid leukemia ip, C3AKF1 mice, survival
Test: NCI In Vivo Anticancer Drug Screen. Data for tumor model AK4 Lymphoid Leukemia (intraperitoneal) in C3AKF1 (CHKRF1) mice
Conditions: T/C endpoint: median survival time, higher T/C = longer survival
Procedure: The antitumor activity of compounds was measured in mice bearing transplantable tumors. Survival or tumor size were measured and the results are expressed as the measurement made in the treated group (T) divided by the measurement made in the vehicle treated control group (C). The tumor model used in this assay is AK4 Lymphoid Leukemia (intraperitoneal) in C3AKF1 (CHKRF1) mice

[1] = dose: 50.0 mg/kg/injection, schedule: Q01DX010 (ip), vehicle: saline
[2] = dose: 100.0 mg/kg/injection, schedule: Q01DX010 (ip), vehicle: saline
[3] = dose: 200.0 mg/kg/injection, schedule: Q01DX010 (ip), vehicle: saline
[4] = dose: 1000.0 micrograms/kg/injection, schedule: Q01DX010 (ip), vehicle: saline
[5] = dose: 500.0 mg/kg/injection, schedule: Q01DX010 (ip), vehicle: saline
[6] = dose: 12.5 mg/kg/injection, schedule: Q01DX010 (sc), vehicle: steroid suspending solution
[7] = dose: 25.0 mg/kg/injection, schedule: Q01DX010 (sc), vehicle: steroid suspending solution
[8] = dose: 12.5 mg/kg/injection, schedule: Q01DX010 (ip), vehicle: saline
[9] = dose: 25.0 mg/kg/injection, schedule: Q01DX010 (ip), vehicle: saline
[10] = dose: 2.5 mg/kg/injection, schedule: Q01DX010 (ip), vehicle: saline
[11] = dose: 5.0 mg/kg/injection, schedule: Q01DX010 (ip), vehicle: saline
[12] = dose: 0.5 mg/kg/injection, schedule: Q01DX010 (ip), vehicle: saline
[13] = dose: 10.0 mg/kg/injection, schedule: Q01DX010 (ip), vehicle: saline
[14] = dose: 3.13 mg/kg/injection, schedule: Q01DX010 (ip), vehicle: saline
[15] = dose: 250.0 mg/kg/injection, schedule: Q01DX010 (ip), vehicle: saline
[16] = dose: 4.0 mg/kg/injection, schedule: Q01DX010 (ip), vehicle: saline
[17] = dose: 8.0 mg/kg/injection, schedule: Q01DX010 (ip), vehicle: saline
[18] = dose: 16.0 mg/kg/injection, schedule: Q01DX010 (ip), vehicle: saline
[19] = dose: 40.0 mg/kg/injection, schedule: Q01DX010 (ip), vehicle: saline
[20] = dose: 400.0 mg/kg/injection, schedule: Q01DX010 (ip), vehicle: saline

CN(C)[C@@H]1C(=O)C(C(N)=O)=C(O)[C@@]2(O)C(=O)C3=C(O)c4c(O)cccc4C[C@H]3C[C@@H]12
survivor count (dose: 120.0 mg/kg/injection, schedule: Q01DX010 (ip), vehicle: saline): 0 of 6

COc1cc(-c2ccc(Nc3ccccc3C(=O)O)c(OC)c2)ccc1Nc1ccccc1C(=O)O
T/C [1]: 125 [6 of 7 alive] and 133 % of control | T/C [2]: 127 % of control [5 of 6 alive] | survivor count [3]: 0 of 6

CSCS(=O)C[C@H](CO)NC(=O)/C=C/c1c(C)[nH]c(=O)[nH]c1=O (stereo partly drawn)
survivor count [4]: 6 of 6

Nc1c(Br)cc2c(c1Br)Cc1cc([N+](=O)[O-])ccc1-2
survivor count [5]: 6 of 6

C[C@]12C=CC(=O)C=C1CC[C@@H]1[C@@H]2C(=O)C[C@@]2(C)[C@H]1CC[C@]2(O)C(=O)CO
survivor count [6]: 6 of 6 | survivor count (dose: 12.5 mg/kg/injection, schedule: Q01DX Z (sc), vehicle: steroid suspending solution): 6 of 6 | survivor count [7]: 6 of 6 | survivor count (dose: 25.0 mg/kg/injection, schedule: Q01DX Z (sc), vehicle: steroid suspending solution): 6 of 6 | T/C (dose: 100.0 mg/kg/injection, schedule: Q01DX Z (sc), vehicle: steroid suspending solution): 126 % of control

O=C(O)CCCc1ccc(N(CCCl)CCCl)cc1
T/C [8]: 127 % of control | survivor count [9]: 0 of 6

Oc1cc(CN(CCCl)CCCl)c(O)cc1CN(CCCl)CCCl
T/C (dose: 1.25 mg/kg/injection, schedule: Q01DX010 (ip), vehicle: saline): 125 % of control | T/C [10]: 125 % of control | T/C [11]: 125 % of control

NC(Cc1c[nH]c2ccc(N(CCCl)CCCl)cc12)C(=O)O (stereo not drawn)
T/C [12]: 143 % of control | T/C (dose: 1.0 mg/kg/injection, schedule: Q01DX010 (ip), vehicle: saline): 137 % of control

CC(=O)O[C@]1(C(C)=O)CC[C@H]2[C@@H]3C[C@H](C)C4=CC(=O)C=C[C@]4(C)[C@@]3(F)[C@@H](O)C[C@@]21C
survivor count [6]: 6 of 6 | survivor count [7]: 6 of 6 | survivor count (dose: 50.0 mg/kg/injection, schedule: Q01DX010 (sc), vehicle: steroid suspending solution): 6 of 6

CC1CCOS(=O)O1 (stereo not drawn)
survivor count [13]: 6 of 6 | survivor count (dose: 80.0 mg/kg/injection, schedule: Q01DX010 (ip), vehicle: saline): 6 of 6

N=[N+]=CC(=O)OCC(N)C(=O)O (stereo not drawn)
T/C [14]: 130 % of control | T/C (dose: 6.25 mg/kg/injection, schedule: Q01DX010 (ip), vehicle: saline): 127 and 140 % of control | T/C [8]: 130 % of control

CCN(CCNc1ccc(C)c2sc3cc(Cl)ccc3c(=O)c12)CC(C)O (stereo not drawn)
survivor count [15]: 5 of 6 | survivor count [5]: 0 of 6

NC(Cc1ccc(N(CCCl)CCCl)cc1)C(=O)O (stereo not drawn)
T/C [16]: 143 % of control

O=c1c(O)cccc2cc(O)c(O)c(O)c12
survivor count [1]: 6 of 6 | survivor count [2]: 6 of 6 | survivor count [3]: 6 of 6

NC(=O)N(CCCl)N=O
T/C [12]: 135 % of control | T/C [16]: 125 % of control

CS(=O)(=O)OCCCl
T/C (dose: 150.0 mg/kg/injection, schedule: Q01DX010 (ip), vehicle: saline): 137 % of control

O=NN(CCCl)C(=O)NCCCl
T/C [14]: 127 and 140 % of control | survivor count [9]: 6 of 6

O=CN(O)CC(=O)O
survivor count (dose: 125.0 mg/kg/injection, schedule: Q01DX010 (ip), vehicle: saline): 6 of 6 | survivor count [15]: 6 of 6

O=C(Nc1ccc(NC2=NCCN2)cc1)c1ccc(C(=O)Nc2ccc(NC3=NCCN3)cc2)cc1
T/C [17]: 130 % of control | T/C [18]: 135 % of control

CCOC(N)=O
T/C [5]: 131 and 142 % of control | T/C (dose: 1000.0 mg/kg/injection, schedule: Q01DX010 (ip), vehicle: saline): 128 % of control [5 of 6 alive]

O=C(O)c1[nH]c(=O)[nH]c(=O)c1F
T/C [10]: 138 % of control | T/C [11]: 127 and 133 % of control

CC(CCC(C)OS(C)(=O)=O)OS(C)(=O)=O (stereo not drawn)
T/C [18]: 127 % of control

COc1ccc2c(c1OC)C(=O)O[C@@H]2[C@H]1c2c(cc3c(c2OC)OCO3)CCN1C
survivor count (dose: 62.5 mg/kg/injection, schedule: Q01DX010 (ip), vehicle: saline): 6 of 6

CS(=O)(=O)OCCC(=O)N1CCN(C(=O)CCOS(C)(=O)=O)CC1
T/C [9]: 133 % of control | T/C [1]: 133 and 144 % of control | T/C [2]: 144 % of control

C1CN1c1nc(N2CC2)nc(N2CC2)n1
survivor count (dose: 2.0 mg/kg/injection, schedule: Q01DX010 (ip), vehicle: saline): 0 of 6

CS(=O)(=O)OCC(O)C(O)C(O)C(O)COS(C)(=O)=O (stereo not drawn)
survivor count [1]: 4 of 7

CN(C)c1ccc(/C=C\c2ccnc3ccccc23)cc1
survivor count (dose: 12.0 mg/kg/injection, schedule: Q01DX010 (ip), vehicle: saline): 6 of 6 | survivor count (dose: 18.0 mg/kg/injection, schedule: Q01DX010 (ip), vehicle: saline): 6 of 6 | survivor count (dose: 27.0 mg/kg/injection, schedule: Q01DX010 (ip), vehicle: saline): 6 of 6 | survivor count [19]: 6 of 6

C[C@@H]1C[C@@H]([C@H](O)CC2CC(=O)NC(=O)C2)C(=O)[C@@H](C)C1
T/C [19]: 128 % of control | survivor count [19]: 5 of 6

S=c1nc[nH]c2nc[nH]c12
T/C (dose: 5.0 mg/kg/injection, schedule: Q01DX010 (ip), vehicle: alkali diluted with saline): 125 % of control | survivor count (dose: 5.0 mg/kg/injection, schedule: Q01DX Z (ip), vehicle: saline): 6 of 6 | T/C (dose: 80.0 mg/kg/injection, schedule: Q01DX010 (ip), vehicle: alkali diluted with saline): 131 % of control

CC(=O)NC1=C(N2CC2)C(=O)C(NC(C)=O)=C(N2CC2)C1=O
survivor count [16]: 6 of 6 | T/C [4]: 144 % of control

CN(C)/N=N/c1nc[nH]c1C(N)=O
T/C [9]: 133 % of control | T/C [20]: 138 % of control

CCN(CC)CCNc1ccc(C)c2sc3ccccc3c(=O)c12
T/C [1]: 138 % of control | survivor count [3]: 6 of 6

CN(N=O)C(N)=O
T/C [11]: 143 % of control

O=[n+]1c2c(n([O-])c3ccccc31)-c1cccc3cccc-2c13
survivor count [3]: 6 of 6

O=C(Nc1ccc(C2=NCCN2)cc1)c1cccc(C(=O)Nc2ccc(C3=NCCN3)cc2)c1
T/C [17]: 130 % of control

O=c1[nH]cc(F)c(=O)[nH]1
T/C [13]: 131 % of control

O=C(Nc1ccc(C2=NCCN2)cc1)c1ccc(C(=O)Nc2ccc(C3=NCCN3)cc2)c([N+](=O)[O-])c1
survivor count (dose: 6.0 mg/kg/injection, schedule: Q01DX010 (ip), vehicle: saline): 0 of 6

C[C@H]1C(=O)O[C@@H]2CCN3CC=C(COC(=O)[C@](C)(O)[C@@]1(C)O)[C@H]23
T/C [9]: 129 % of control

C=CC(CN1CC1)OC(C)=O (stereo not drawn)
survivor count [18]: 6 of 6

CC[C@]1(O)C[C@H]2CN(CCc3c([nH]c4ccccc34)[C@@](C(=O)OC)(c3cc4c(cc3OC)N(C=O)[C@H]3[C@@](O)(C(=O)OC)[C@H](OC(C)=O)[C@]5(CC)C=CCN6CC[C@]43[C@@H]65)C2)C1
T/C (dose: 0.25 mg/kg/injection, schedule: Q01DX010 (ip), vehicle: saline): 125 % of control | survivor count [12]: 6 of 6 | survivor count (dose: 0.5 mg/kg/injection, schedule: Q01DX Z (ip), vehicle: saline): 2 of 6 and 6 of 6 | T/C (dose: 125.0 micrograms/kg/injection, schedule: Q01DX010 (ip), vehicle: saline): 137 % of control | T/C (dose: 250.0 micrograms/kg/injection, schedule: Q01DX010 (ip), vehicle: saline): 131 % of control | T/C (dose: 500.0 micrograms/kg/injection, schedule: Q01DX010 (ip), vehicle: saline): 143 % of control

Nc1nc(F)nc2c1ncn2C1OC(CO)C(O)C1O (stereo not drawn)
survivor count [17]: 6 of 6 | survivor count [18]: 0 of 6

C#CCN(C)Cc1ccccc1
survivor count [20]: 0 of 6
